Results deposited as PubChem BioAssay AID720505 (Drosophila RNAi Screening Center, 2013)

- Test: 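Genes needed for store-operated calcium entry in fly cells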 (primary screen)
- Cell system: Drosophila S2R+ cells
- Reagents: long dsRNA against Drosophila genes
- Conditions: thapsigargin (2 µM) in calcium-free buffer to empty internal stores, then 2 mM calcium added back
- Detection: 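Stores emptied by 2 µM thapsigargin without calcium, then 2 mM calcium re-added; fluo-4 fluorescence followed by FLIPR in 384-well plates, per-well averaged endpoint, raw; two screen passes, some wells retested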
- Scale: calcium signal and retest calcium signal: higher = more calcium entry after store depletion
- Active means: 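Knock-downs counted as hits when calcium entry dropped relative to STIM1 positive and Rho1 negative controls present on each plate; roughly 1500 genes called, with reductions of differing size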
- Calls: active = called as lowering calcium entry; inactive = not called
The screen tested about 20,000 reagents; shown is an unselected part of those with a known target gene and a result. In the full data, about 2,100 (10%) were called active. 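Raw plate signals without normalisation; calls rest on control-based scores that were not deposited; replicate 2 separates called from uncalled poorly.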 Unmarked entries are inactive. Names joined by + are all predicted targets of the reagent. Not stated in the record: the amount of reagent, the time to read-out.

| Target gene | DRSC id | calcium signal, replicate 1 | calcium signal, replicate 2 | retest calcium signal, replicate 1 | retest calcium signal, replicate 2 |
| --- | --- | --- | --- | --- | --- |
| CG15127 | DRSC05802 | 95 | 89 | – | – |
| CG15127 | DRSC06549 | 153 | 159 | – | – |
| CG4945 | DRSC06904 | 148 | 144 | – | – |
| dl (dorsal) | DRSC03520 | 91.4 | 111 | – | – |
| dl (dorsal) | DRSC03521 | 143 | 155 | – | – |
| CG4716 | DRSC06884 | 146 | 158 | – | – |
| CG3565 | DRSC04389 | 168 | 109 | – | – |
| gro (groucho) | DRSC16962 | 88.5 | 164 | – | – |
| wnd (wallenda) | DRSC11046 | 108 | 96.1 | – | – |
| wnd (wallenda) | DRSC21373 | 117 | 139 | – | – |
| CG9044 | DRSC03130 | 119 | 185 | – | – |
| SppL (Signal peptide peptidase-like) | DRSC15228 | 297 | 145 | – | – |
| CG15357 | DRSC00387 | 101 | 109 | – | – |
| EloC (Elongin C) | DRSC07423 | 135 | 132 | – | – |
| PpY-55A (Protein phosphatase Y at 55A) | DRSC07513 | 144 | 117 | – | – |
| PpY-55A (Protein phosphatase Y at 55A) | DRSC23328 | 112 | 155 | – | – |
| CG18268 + CG3014 | DRSC15319 | 161 | 196 | – | – |
| eIF2Bepsilon (eukaryotic translation initiation factor 2B subunit epsilon) | DRSC18769 | 84.8 | 162 | – | – |
| Eogt (EGF-domain O-GlcNAc transferase) | DRSC00727 | 70.2 | 140 | – | – |
| Gug (Grunge) | DRSC11179 | 85.8 | 79.5 | – | – |
| DIP-beta (Dpr-interacting protein beta) | DRSC20461 | 101 | 11450 | – | – |
| DIP-beta (Dpr-interacting protein beta) | DRSC20489 | 112 | 88.3 | – | – |
| DIP-beta (Dpr-interacting protein beta) | DRSC20490 | 118 | 91.5 | – | – |
| DIP-beta (Dpr-interacting protein beta) | DRSC20505 | 87 | 86.8 | – | – |
| CG15130 | DRSC02430 | 228 | 80.5 | – | – |
| Hpf1 (Histone PARylation factor 1) | DRSC12202 | 118 | 124 | – | – |
| Sec22 + CG13358 | DRSC18538 | 130 | 170 | – | – |
| glec (gliolectin) | DRSC16958 | 251 | 182 | – | – |
| ATPsyngamma (ATP synthase, gamma subunit) | DRSC14094 | 166 | 146 | – | – |
| rst (roughest) | DRSC18828 | 114 | 159 | – | – |
| CG2004 | DRSC18200 | 283 | 110 | – | – |
| CG13243 | DRSC01920 | 102 | 110 | – | – |
| Ak3 (Adenylate kinase 3) | DRSC16075 | 173 | 88.9 | – | – |
| Vps24 (Vacuolar protein sorting 24) | DRSC12332 | 124 | 101 | 112 | 131 |
